# Results are given in words; binding and its absence hold for the method and conditions named. Binding can be weak; no strength is given.
# B1: monoclonal antibody 2286 (produced by hybridoma 8A1.2A1) (antibody, V domains shown)
# VH: EVKLLESGGGLVQPGGSLKLSCAASGFDFSRYWMNWVRQAPGKGLEWIGEINPDSSTINYTPSLKDKFIISRDNAKNTLYLQMSKVRSEDTALYYCARQMGYWGQGTTLTVSS
# VL: DIQMTQTTSSLSASLGDRVTISCSASQGISNYLNWFQQKPDGTVKLLIYYTSSLHSGVPSRFSGSGSGTDYSLTISNLEPEDIATYYCQQYRKLPYTFGGGTKLEIKR
# Columns and labels:
# [1] = biological target: Aβ1-40 variant G38A expressed as GST fusion protein; assay: ELISA on immobilized GST fusion proteins (0.25 µg per well), antibody at 2 nM
# [2] = biological target: Aβ1-40 variant G38A expressed as GST fusion protein; assay: ELISA: GST fusion protein immobilized 0.25 µg per well, antibody at 2 nM, biotin goat anti-mouse (H+L) + streptavidin-HRP, OD450
binder,measurement,setting,value
B1,binding,[1],binds
same,binding,[2],binds

# From US20040146512A1
